# Assay results published in the supplement of paper PMC3334620.
# The full ranking holds about 33,000 sequences; the median of “E-score (-0.5 to 0.5)” is about -8e-05, and the highest 2% start at about 0.23. The list shows a part of the results.
# Molecular target: T1, Nrg2 (UniProt P38082)
# T1 sequence: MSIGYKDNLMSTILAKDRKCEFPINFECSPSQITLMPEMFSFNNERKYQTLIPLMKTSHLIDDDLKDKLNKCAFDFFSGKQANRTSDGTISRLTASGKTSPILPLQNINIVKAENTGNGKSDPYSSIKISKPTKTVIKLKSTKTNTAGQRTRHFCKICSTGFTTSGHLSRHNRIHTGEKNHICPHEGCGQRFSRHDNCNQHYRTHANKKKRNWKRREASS
# Assay: PBM E-score (8-mer binding enrichment) (E-score (-0.5 to 0.5)); higher = stronger / more preferred TF binding
# Conditions: protein concentration: 100 nM; construct: GST-full length
# Procedure, shortened: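 Universal all-10-mer Agilent arrays, double-stranded by primer extension on fresh or once-stripped slides, were probed with about 100-200 nM GST-tagged yeast transcription factors made by PURExpress. Fluorescent anti-GST detected bound protein, and masliner normalised the scans. E-scores from the Universal PBM Analysis Suite were given to each ungapped eight-base word pooled with its reverse complement.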
row,Sequence,PBM E-score
1,GTAAACGA,-0.165
2,AAGGCGCA,0.125
3,CAATGAGG,-0.231
4,AGTGCTAT,-0.0367
5,CAATAGGC,-0.108
6,CTGTATGC,-0.1
7,GGGGGGAA,-0.341
8,GAAAGATC,0.121
9,GAGGGGCA,-0.303
10,GGAAGGTA,-0.205
11,GAGTAACC,0.104
12,CTAAGCGA,-0.0474
13,ATGACTAC,-0.0387
14,GCGCAGCA,-0.286
15,GCTCCTAC,-0.0957
16,CCAGTAAG,-0.099
17,ACGTCCCA,-0.223
18,AGCTAGGC,-0.0507
19,CATGTCGC,-0.0964
20,GGTACGGA,-0.0693
21,AGGGTAGA,-0.0601
22,ACTGCGAA,-0.122
23,CGCCAACG,-0.0977
24,ACAAGATA,0.103
25,AGCCCCCG,-0.407

# Copied from the list:
# GGGGGGAA – PBM E-score: -0.341
# ACGTCCCA – PBM E-score: -0.223
# GCTCCTAC – PBM E-score: -0.0957
# CAATGAGG – PBM E-score: -0.231
# GAGTAACC – PBM E-score: 0.104
# CCAGTAAG – PBM E-score: -0.099

# Later entries.

row,Sequence,PBM E-score
1,GGACGGAA,-0.0899
2,GGTTGCCA,-0.00492
3,GCAGCGAC,-0.177
4,ACTGGCGC,0.135
5,CCCTTCTA,-0.0766
6,CGCGGACG,-0.043
7,AGCCGCCT,0.0028
8,GGCACAGA,-0.13
9,ACTCTGAT,0.0459
10,GCTATCCC,-0.138
11,ACGCTTTG,-0.124
12,AGCGTAAG,-0.0617
13,AAGCAAAT,-0.018
14,AGGACCAG,-0.0763
15,ATCACGAG,-0.242
16,CAGCCTAG,0.0198
17,ATCGTTGC,-0.115
18,ATTGAACG,-0.0983
19,CTGGTAAA,-0.0859
20,ACCGTGGC,-0.107
21,AATCAAAG,-0.0867
22,ATGATGAC,0.0196
23,CAGGGCTA,-0.0464
24,AACACATG,0.169
25,CTCAGCAA,0.0227

row,Sequence,PBM E-score
1,AATTAAAG,0.129
2,AGTCTATA,-0.136
3,ACATTCCG,0.00186
4,GACGGCGA,-0.131
5,AACGAAGT,-0.0818
6,AAGCGAAA,0.123
7,CGCGCGAA,0.157
8,CCAGGAAA,0.183
9,AGAACGCG,0.189
10,ACCATCTG,-0.0508
11,CCTTCCTA,-0.318
12,CCACTGTC,0.0103
13,AGTTAAAG,0.0216
14,GCACACTA,0.169
15,TGCTAGCA,0.0326
16,CGCTTCTA,-0.044
17,CCCGAAGG,-0.0101
18,CCGCCTTC,-0.253
19,GCGTTTAA,-0.0756
20,AAGTGCGA,-0.187
21,AACTGGAA,0.05
22,CGCCTTCA,-0.273
23,CCGCTTGC,-0.131
24,CATCAATC,-0.0356
25,AGTGTGTG,-0.00931

row,Sequence,PBM E-score
1,GAGGAACC,-0.0829
2,ACGCACCT,-0.094
3,CACCCCGC,0.189
4,ATACAGCC,0.0802
5,AATATGGA,0.0669
6,ATTGAGGC,0.0357
7,CATGGTTC,0.0101
8,CCATACCA,-0.107
9,ATGGACCG,-0.00856
10,CTTGTGAC,-0.108
11,CAGGTTCC,0.00626
12,AGCTCAGA,-0.0214
13,ACTTGGCC,-0.0839
14,GGTCTTAC,-0.219
15,GCGGTGTA,0.0942
16,AGATACCT,0.0202
17,CTAGAAAG,-0.0314
18,TGAATGAA,0.142
19,CGACTTTA,-0.14
20,ATATCAGC,0.0872
21,GGGCAATA,0.0453
22,AACGTGTA,-0.0437
23,AAAGACGG,-0.0232
24,GAACAACA,0.00491
25,AGAAGACG,0.105

# An excerpt of these results, with bars between the fields:
row | Sequence | PBM E-score
3 | GCAGCGAC | -0.177
24 | AACACATG | 0.169
9 | AGAACGCG | 0.189

# Further records.

row,Sequence,PBM E-score
1,CGGGCAGA,0.0991
2,CACTCAAA,0.0606
3,CTTTCTAC,0.0876
4,CAGTGCGG,0.11
5,TCATTACA,0.0581
6,CTAAACTC,-0.138
7,AGATTACT,0.0391
8,ATTACATA,0.0153
9,ATAATGGG,0.125
10,ATATGTAA,0.0105
11,CAAGATAA,0.0457
12,CGGACGAC,-0.061
13,ACTCCGTA,-0.0561
14,AGACCAGC,-0.182
15,ATCGAAAT,0.0963
16,CTGTAATC,0.0655
17,AGAGATCA,-0.0543
18,ACGGAACT,0.101
19,CAAGTTCG,-0.13
20,ATCGACTA,0.0466
21,ACCCAAGG,0.0922
22,TAACGGGA,-0.162
23,CAAGATGA,0.0666
24,TATCAGCA,0.0256
25,GCTCCGAC,-0.275

row,Sequence,PBM E-score
1,ATCTGGGC,-0.109
2,ATTCTGCA,0.0674
3,ATGCGCCA,0.122
4,AGACGTTC,-0.0449
5,GTCAAGAC,-0.183
6,CCAAACCG,0.0752
7,ACCTAAAG,-0.00458
8,GACCGCAC,-0.0895
9,CTTATCGC,-0.0611
10,TGGCACCA,-0.144
11,ACGGTTCC,-0.0941
12,ATTGTGGG,0.0492
13,GCAGTCCA,0.0622
14,AGCGCGAT,0.194
15,CCAATTCG,-0.0563
16,ATTTCGCA,0.274
17,AAGGTCTG,-0.0169
18,AGTAAGCC,-0.134
19,AGATAAGC,-0.189
20,CGTAAGTA,-0.0243
21,CTCACATC,0.0607
22,CCCAAAGG,-0.18
23,AGGGAGAA,0.0297
24,CAACCAAA,-0.00518
25,ACAAGTAG,-0.104

row,Sequence,PBM E-score
1,AACTCTAC,-0.162
2,CCACTACA,0.045
3,CATTGCTA,0.118
4,CCTCTTAA,0.179
5,AAATGCGC,0.272
6,GTGCAATA,-0.0407
7,AACCGTTA,-0.273
8,GATAATGA,0.0809
9,GACCCATA,0.118
10,AAGAAAGT,0.136
11,AGGTGTCC,-0.0496
12,ACTCTATA,0.0465
13,CATCGTAA,0.0341
14,ACTCACGC,0.0454
15,GGTCATCA,-0.0816
16,CGCCGTTC,0.00368
17,ACGATCGG,0.0497
18,CCTGAGAC,0.0415
19,GAGCTACA,-0.114
20,CATATATA,0.205
21,AGGGACCC,0.337
22,AGTAAAGC,0.00303
